Experimental data taken from US4576951A, “Proglumide, pharmaceutical preparations and compositions including it for use in human pain relief” (priority 1983, dated 1986).

Assays:
in vivo = conditions: mouse, sc
Protocol: The drug (or drugs) under examination was administered sub-cutaneously. The animals were kept under observation for 15 days after the administration.
Ten animals were used for each dose.

[1] = type: in vivo, rats; conditions: morphine 3 or dextropropoxyphene 6 mg/kg alone
Protocol: The method is that described by Harris et al. (J. Pharmcol. Exp. Ther. 143 (1964) 141-148).
Male rats are used which have a weight of about 150-200 g and which have not been fasting. A point is chosen on the tail and this is irradiated by a heat source (75° C.) and the time (in seconds) for which the animal remains without moving its tail is measured.
A maximum period of time under the heat source of 8 seconds is chosen after which the animal is, in any case, removed in order to avoid tissue damage. The measurement is effected before (controls) and after treatment with the drugs. […] The percentage variation is calculated for each individual animal by the following formula: [formula] (time measurements are in seconds)
The measurements are carried out 10, 20, 30, 45, 60 and 90 minutes after treatment with the analgesics.

Question: Which LD50 at 360 h (in vivo) does the source give for `CN1CC[C@]23c4c5ccc(O)c4O[C@H]2[C@@H](O)C=C[C@H]3[C@H]1C5` [Morphine] here?
Answer: 458 mg/kg

Question: What about the “X, potency ratio with respect to morphine = 1” value [1] of the same compound?
Answer: 1
